According to PubChem BioAssay (NCATS):
The shares of active, inactive and inconclusive entries below differ from those in the screen. Potencies beside an inconclusive call are fits to weak or partial responses and may not hold up. The source made the active and inactive calls. Calls come from the whole dose curve; as a rule, active = well fitted cell-killing curve with a large enough effect; inconclusive = small, poorly fitted or top-dose-only effect, or effect the other way; inactive = no such curve, though single readings can be large or run the other way.

Key:
[1] = Quantitative High-Throughput drug screen in 47 multiple myeloma cell lines against the NCATS MIPE library collection: H1112_PLB cell viability assay (AID 1918967; note: nearly all actives have a fitted effect of over 30% in size); conditions: H1112 myeloma cells viability, ATP luminescence, 48 h; viability: at 45.8 µM (top of the series)
How it was run: (§1)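 Luminescent ATP measurement with CellTiter-Glo gives viability, scaled between DMSO-only wells (100%) and media-only wells (0%). Cells, 500 per well, faced library compounds for 48 hours at 37C.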

[2] = Quantitative High-Throughput drug screen in 47 multiple myeloma cell lines against the NCATS MIPE library collection: KMS27_JCRB cell viability assay (AID 1918970); conditions: KMS27 myeloma cells, CellTiter-Glo ATP viability, 48 h; viability (% of DMSO): at 45.8 µM (top of the series) unless noted; note: nearly all actives have a fitted effect of over 30% in size
How it was run: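 Each line is seeded at 500 cells per well and treated with library compounds for 48 hours under 37 °C, 5% CO2. CellTiter-Glo is then added for 5 min at room temperature before median relative luminescence is recorded.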

[3] = Quantitative High-Throughput drug screen in 47 multiple myeloma cell lines against the NCATS MIPE library collection: KMS12BM_JCRB cell viability assay (AID 1918971); note: nearly all actives have a fitted effect of over 35% in size
How it was run: (§2)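 Inhibition of cell viability is measured here. Each line was plated at 500 cells per well, treated with MIPE 4.0 drugs, kept 48 hours at 37C, then assayed for ATP content by CellTiter-Glo luminescence.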

[4] = Quantitative High-Throughput drug screen in 47 multiple myeloma cell lines against the NCATS MIPE library collection: KMS12PE_JCRB cell viability assay (AID 1918972); conditions: KMS12PE myeloma viability, CellTiter-Glo ATP, 48 h; viability: at 45.8 µM (top of the series); note: nearly all actives have a fitted effect of over 30% in size
How it was run: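 Steps: seed 500 cells per well; pin-transfer MIPE 4.0 library; incubate 48 h at 37C, 5% CO2, humidified; add CellTiter-Glo, 5 min room temperature; read luminescence.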

[5] = Quantitative High-Throughput drug screen in 47 multiple myeloma cell lines against the NCATS MIPE library collection: KMS20_JCRB cell viability assay (AID 1918973); conditions: CellTiter-Glo ATP, 48 h; viability (% of DMSO): at 45.8 µM (top of the series); note: nearly all actives have a fitted effect of over 45% in size
How it was run: as §1

[6] = Quantitative High-Throughput drug screen in 47 multiple myeloma cell lines against the NCATS MIPE library collection: KMS26_JCRB cell viability assay (AID 1918975); conditions: KMS26 myeloma cells viability, CellTiter-Glo ATP, 48 h; viability (% of DMSO): at 45.8 µM (top of the series); note: nearly all actives have a fitted effect of over 45% in size
How it was run: as §2

[7] = Quantitative High-Throughput drug screen in 47 multiple myeloma cell lines against the NCATS MIPE library collection: MMM1_PLB cell viability assay (AID 1918976); note: nearly all actives have a fitted effect of over 35% in size
How it was run: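 Inhibition of viability over 48 h was scored by ATP content (CellTiter-Glo) in 500-cell wells. Zero and full viability were defined by media-only and DMSO-only wells.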

[8] = Quantitative High-Throughput drug screen in 47 multiple myeloma cell lines against the NCATS MIPE library collection: JJN3_DSMZ cell viability assay (AID 1918966; note: nearly all actives have a fitted effect of over 50% in size)
How it was run: as §1

[9] = Quantitative High-Throughput drug screen in 47 multiple myeloma cell lines against the NCATS MIPE library collection: KMS21BM_JCRB cell viability assay (AID 1918974); conditions: ATP luminescence, 48 h; viability: at 45.8 µM (top of the series) unless noted
How it was run: as §1

[10] = Quantitative High-Throughput drug screen in 47 multiple myeloma cell lines against the NCATS MIPE library collection: Karpas25_ECACC cell viability assay (AID 1918968; note: nearly all actives have a fitted effect of over 35% in size); conditions: Karpas25 myeloma viability, CellTiter-Glo ATP, 48 h; viability (% of control): at 45.8 µM (top of the series)
How it was run: as §1
Potency is the fitted concentration of half-maximal effect.

Cc1ccccc1C(=O)Nc1ccc(C(=O)N2CCCC(O)c3cc(Cl)ccc32)c(C)c1 (centres undefined)
inactive: Potency [1] | Potency [3]
inconclusive: Potency [2] 33.2 µM [cytotoxic, single point] | Potency [4] 20.9 µM [cytotoxic, partial curve] | Potency [5] 7.43 µM [rising, partial curve, poor fit] | Potency [6] 37.2 µM [cytotoxic, single point] | Potency [7] 33.2 µM [cytotoxic, single point]

CNC(=O)c1ccc(N2C(=S)N(c3cnc(C#N)c(C(F)(F)F)c3)C(=O)C23CCC3)cc1F
active: Potency [8] 3.32 µM | Potency [4] 2.96 µM | Potency [5] 2.35 µM | Potency [6] 1.48 µM
inconclusive: Potency [9] 1.32 µM [cytotoxic, full curve, poor fit] | Potency [7] 20.9 µM [cytotoxic, partial curve, poor fit]

Cc1ccc(C(=O)N(CCCN)[C@@H](c2nc3cc(Cl)ccc3c(=O)n2Cc2ccccc2)C(C)C)cc1
inconclusive: Potency [1] 18.7 µM [cytotoxic, partial curve] | Potency [10] 9.35 µM [cytotoxic, full curve] | Potency [3] 20.9 µM [cytotoxic, partial curve] | viability [4] 18.4% [cytotoxic] | Potency [5] 3.72 µM [cytotoxic, full curve]

Cc1cnc(Nc2ccc(F)cc2Cl)nc1-c1c[nH]c(C(=O)N[C@H](CO)c2cccc(Cl)c2)c1
inconclusive: Potency [8] 33.2 µM [cytotoxic, single point] | Potency [9] 0.59 µM [cytotoxic, full curve, poor fit]
active: Potency [5] 3.32 µM

Clc1ccc(Nc2nnc(Cc3ccncc3)c3ccccc23)cc1
inconclusive: Potency [1] 20.9 µM [cytotoxic, partial curve] | Potency [10] 18.7 µM [cytotoxic, partial curve] | Potency [5] 33.2 µM [cytotoxic, single point] | Potency [9] 37.2 µM [rising, partial curve] | Potency [6] 16.6 µM [cytotoxic, partial curve, poor fit]

OCC(O)C(O)C(O)CO (centres undefined)
inconclusive: Potency [3] 4.69 µM [cytotoxic, partial curve, poor fit] | Potency [5] 0.0132 µM [cytotoxic, full curve, poor fit] | Potency [9] 0.0105 µM [rising, full curve] | Potency [7] 18.7 µM [cytotoxic, partial curve, poor fit]
inactive: Potency [1] | Potency [10]

Cn1c(=O)c(-c2c(Cl)cccc2Cl)cc2cnc(Nc3cccc(C(=O)O)c3)nc21
inconclusive: Potency [1] 0.0418 µM [rising, full curve, poor fit] | Potency [3] 0.833 µM [cytotoxic, full curve, poor fit] | Potency [4] 0.372 µM [cytotoxic, full curve] | Potency [5] 0.0526 µM [cytotoxic, full curve, poor fit] | Potency [7] 0.0037 µM [rising, full curve, poor fit]
active: Potency [2] 0.526 µM | Potency [9] 0.0833 µM

C#C[C@]1(O)CC[C@@H]2[C@@H]3CCc4cc(O)ccc4[C@H]3CC[C@@]21C
inconclusive: Potency [9] 14.8 µM [cytotoxic, partial curve, poor fit]
active: Potency [1] 18.7 µM | Potency [10] 18.7 µM | Potency [5] 14.8 µM | Potency [7] 14.8 µM

C[C@H]1[C@H](O)O[C@@H]2O[C@@]3(C)CC[C@@H]4[C@H](C)CC[C@@H]1[C@@]24OO3
inconclusive: Potency [8] 7.43 µM [cytotoxic, partial curve, poor fit] | Potency [4] 2.35 µM [cytotoxic, full curve] | Potency [9] 8.33 µM [cytotoxic, partial curve, poor fit] | Potency [7] 5.26 µM [cytotoxic, full curve]
active: Potency [5] 14.8 µM
